According to paper PMC4057713:
These are yes or no findings as the source states them, for the method shown. In cells and extracts the contact can be indirect. Some binding calls cover weakened binding; strength is not graded here.

Amino acid sequences for entries named in this document (tags omitted).
UniProt P03126: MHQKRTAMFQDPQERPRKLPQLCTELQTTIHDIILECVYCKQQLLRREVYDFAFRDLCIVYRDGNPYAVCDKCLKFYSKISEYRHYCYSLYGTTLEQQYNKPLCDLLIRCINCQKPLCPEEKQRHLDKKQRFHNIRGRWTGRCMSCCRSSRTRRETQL
UniProt Q16665: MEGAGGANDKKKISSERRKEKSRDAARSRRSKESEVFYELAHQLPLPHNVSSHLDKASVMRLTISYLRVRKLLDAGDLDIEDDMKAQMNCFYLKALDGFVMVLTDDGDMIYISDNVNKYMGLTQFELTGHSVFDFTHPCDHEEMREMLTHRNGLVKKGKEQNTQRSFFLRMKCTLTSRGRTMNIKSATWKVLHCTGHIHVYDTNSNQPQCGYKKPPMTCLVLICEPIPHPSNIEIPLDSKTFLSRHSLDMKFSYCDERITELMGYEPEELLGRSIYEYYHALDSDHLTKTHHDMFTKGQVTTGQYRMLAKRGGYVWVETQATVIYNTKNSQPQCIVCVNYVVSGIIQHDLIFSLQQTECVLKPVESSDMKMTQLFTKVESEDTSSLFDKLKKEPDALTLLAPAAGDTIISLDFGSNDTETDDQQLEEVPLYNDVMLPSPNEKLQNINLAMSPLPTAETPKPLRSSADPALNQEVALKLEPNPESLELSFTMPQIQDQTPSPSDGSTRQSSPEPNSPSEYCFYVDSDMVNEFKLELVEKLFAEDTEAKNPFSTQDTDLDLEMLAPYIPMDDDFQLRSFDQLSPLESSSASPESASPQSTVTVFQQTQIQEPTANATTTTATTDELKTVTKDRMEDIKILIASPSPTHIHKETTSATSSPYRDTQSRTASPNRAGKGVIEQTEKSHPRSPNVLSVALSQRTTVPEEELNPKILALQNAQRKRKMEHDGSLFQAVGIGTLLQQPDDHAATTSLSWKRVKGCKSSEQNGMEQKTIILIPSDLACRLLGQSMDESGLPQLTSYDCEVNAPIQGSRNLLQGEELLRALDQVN

Target: myc-tagged HPV16 E6 (human papillomavirus 16) (UniProt P03126)
Experiment: co-IP; HEK 293T cells transfected with or without myc-E6, normoxia or 100 uM CoCl2-induced hypoxia, 48 h after transfection; IP with anti-myc (9E10) or anti-HIF-1α, blot with anti-HIF-1α or anti-myc; lysis in radioimmunoprecipitation buffer, 4 °C overnight

Question: For “Hypoxia-inducible factor 1α (HIF-1α), endogenous (from UniProt Q16665 1-826)”, which binding is on record?
Answer: binds
